Results are given in words; binding and its absence hold for the method and conditions named. Some entries that bind do so weakly or less than the wild type.
B1: Tse15 N-terminal clade domain (residue 1-334) (domain or fragment, UniProt A0A5K6CSR3 1-334, looked up)
chain: MAKENTQQKEIKRQPAVELAVFNLNSVTDVADLQMIASQVQLYLQVCGNTTLEQIKSKANITTVANIFALTGSVLDLMLYATDKKTGDAAVQRGALLAANLIGLFSEPNNEAHARMALRPMFGLMAECLYRENGKIKETDIKRLGLHLNAMIAGDLENFLKETQAKLSSLLISATTLGVTILQSMATPATGINAGITTAAGASAEKRDPKLKFTNWAVPLIDLLGKPSQANLTPKIQPNITSRLQQEATQAIAALSQTLQQQANAGQKYTLAWLLQETLKAIQALENKGNASVPINQTGEYERHTKGDTLEFVSLQADALNAPPCEGADSQSGK

Assays:
[1] = biological target: Tse15NN (Tse15 D1369N, D1391N), recombinant (Acinetobacter baumannii (strain AB307-0294)); experiment: cryo-EM structure
[2] = biological target: Tse15NN Rhs-toxin fragment (residues 335-1590, D1369N, D1391N) (Acinetobacter baumannii (strain AB307-0294)); experiment: cryo-EM structure

| Molecule | binding [1] | binding [2] |
| --- | --- | --- |
| Tse15NN (Tse15 D1369N, D1391N), recombinant (from UniProt A0A5K6CSR3 1-334; A0A5K6CSR3 335-1590) (complex) | no binding |  |
| B1 |  | binds |
